# No constants are given. Whether binding was seen depends on the method and setting. In cells and extracts the contact can be indirect. A yes stands for co-enrichment or nearness to the bait. Other partners may have been found. Sequences can lack the tags named with a protein.
# T1: BRCA1-associated protein (BRAP) from HeLa cell extract (UniProt Q7Z569)
# T1 sequence (looked up): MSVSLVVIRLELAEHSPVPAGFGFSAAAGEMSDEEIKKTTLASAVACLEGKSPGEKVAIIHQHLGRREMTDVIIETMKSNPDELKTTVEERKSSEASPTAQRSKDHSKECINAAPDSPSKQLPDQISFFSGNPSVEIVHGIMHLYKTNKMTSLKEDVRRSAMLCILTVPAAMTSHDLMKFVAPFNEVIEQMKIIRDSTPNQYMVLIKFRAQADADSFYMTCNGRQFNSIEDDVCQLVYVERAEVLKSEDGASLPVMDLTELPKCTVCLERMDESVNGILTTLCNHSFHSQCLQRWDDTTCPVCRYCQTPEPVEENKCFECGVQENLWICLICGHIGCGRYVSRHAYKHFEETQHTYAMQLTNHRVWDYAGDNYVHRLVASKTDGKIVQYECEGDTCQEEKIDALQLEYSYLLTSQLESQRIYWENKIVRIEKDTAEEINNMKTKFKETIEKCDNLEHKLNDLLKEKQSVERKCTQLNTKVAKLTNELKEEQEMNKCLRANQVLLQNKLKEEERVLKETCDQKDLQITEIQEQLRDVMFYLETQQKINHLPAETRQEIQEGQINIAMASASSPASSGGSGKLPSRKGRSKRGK
# B1: galectin-2 expressed from the galectin-2 TAP vector (Myc tag at the N-terminus, TAP tag at the C-terminus) (protein, UniProt P05162 1-132, looked up, not shown: small tags and cut ends)
# chain: MTGELEVKNMDMKPGSTLKITGSIADGTDGFVINLGQGTDKLNLHFNPRFSESTIVCNSLDGSNWGQEQREDHLCFSPGSEVKFTVTFESDKFKVKLPDGHELTFPNRLGHSHLSYLSVRGGFNMSSFKLKE
# Target: T1, BRCA1-associated protein (BRAP) from HeLa cell extract
# Assay: tandem affinity purification from transfected HeLa cells, MALDI/TOF mass spectrometry
binder,measurement,value
B1,binding,binds

# Reference: US20110129826A1
